The list shows a part of the results.
Compound: c1cn2cc(-c3ccc4cn[nH]c4c3)nc(Nc3ccc(N4CCOCC4)cc3)c2n1 [entospletinib]
Assay: log2 fold change, soluble protein after heating vs DMSO (PISA); higher = thermal stabilisation; K562 cells, 10 uM, 30 min; active = over 0.2 and 3.5 SD of the protein, either way, in both replicates (recomputed)
Procedure, shortened: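 Aliquots of K562 cells (2×10^6 cells/mL) treated with 10 μM compound for 30 min were heated for 3 min over 48°C-58°C. After pooling and extraction in PBS with 0.5% NP-40 at 4°C, soluble protein from a 21,000xg, 90 min spin was quantified by TMTpro 16plex LC-MS/MS with channel sums equalised. Thermal stability is expressed against control samples, from duplicates, as a log2 fold change.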

The chains behind the UniProt entries cited, without tags or fusion partners. Where a name states a change or a piece, a line headed by the entry shows the natural chain unless it says otherwise.
UniProt Q9BRJ7: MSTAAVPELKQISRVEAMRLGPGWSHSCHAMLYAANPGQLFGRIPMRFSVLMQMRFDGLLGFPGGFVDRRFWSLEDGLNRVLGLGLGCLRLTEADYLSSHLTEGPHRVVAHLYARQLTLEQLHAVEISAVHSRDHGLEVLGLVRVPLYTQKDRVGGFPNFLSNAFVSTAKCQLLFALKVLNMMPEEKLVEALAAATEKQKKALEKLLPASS
UniProt O43929: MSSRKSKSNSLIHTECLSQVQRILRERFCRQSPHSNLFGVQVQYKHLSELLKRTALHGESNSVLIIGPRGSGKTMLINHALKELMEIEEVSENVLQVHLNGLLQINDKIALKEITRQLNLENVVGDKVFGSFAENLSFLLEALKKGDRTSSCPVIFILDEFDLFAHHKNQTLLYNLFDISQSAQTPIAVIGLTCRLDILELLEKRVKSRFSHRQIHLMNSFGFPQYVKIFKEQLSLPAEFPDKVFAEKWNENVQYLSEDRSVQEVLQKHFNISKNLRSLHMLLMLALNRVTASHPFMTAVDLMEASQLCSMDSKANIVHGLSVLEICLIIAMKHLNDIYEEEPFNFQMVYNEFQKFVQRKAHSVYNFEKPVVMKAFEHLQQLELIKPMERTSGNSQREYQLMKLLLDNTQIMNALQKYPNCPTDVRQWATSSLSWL
UniProt Q5BKU9: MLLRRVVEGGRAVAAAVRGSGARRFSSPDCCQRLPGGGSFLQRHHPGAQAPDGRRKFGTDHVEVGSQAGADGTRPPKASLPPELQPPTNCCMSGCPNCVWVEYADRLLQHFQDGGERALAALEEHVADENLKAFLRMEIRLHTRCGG
UniProt P07237: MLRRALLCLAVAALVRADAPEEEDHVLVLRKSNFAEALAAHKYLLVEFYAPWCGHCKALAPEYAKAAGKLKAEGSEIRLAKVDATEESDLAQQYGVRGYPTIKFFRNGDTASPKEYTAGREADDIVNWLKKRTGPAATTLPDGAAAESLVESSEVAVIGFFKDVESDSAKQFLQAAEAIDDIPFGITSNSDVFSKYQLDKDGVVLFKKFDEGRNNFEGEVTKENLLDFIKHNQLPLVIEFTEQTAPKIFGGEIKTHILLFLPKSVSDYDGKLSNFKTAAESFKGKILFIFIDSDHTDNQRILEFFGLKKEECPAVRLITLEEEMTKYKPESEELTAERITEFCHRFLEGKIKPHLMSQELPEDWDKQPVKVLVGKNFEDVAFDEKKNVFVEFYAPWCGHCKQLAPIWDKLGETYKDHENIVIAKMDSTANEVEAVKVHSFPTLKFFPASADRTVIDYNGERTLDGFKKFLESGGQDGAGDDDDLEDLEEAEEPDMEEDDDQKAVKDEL
UniProt Q9Y5A7: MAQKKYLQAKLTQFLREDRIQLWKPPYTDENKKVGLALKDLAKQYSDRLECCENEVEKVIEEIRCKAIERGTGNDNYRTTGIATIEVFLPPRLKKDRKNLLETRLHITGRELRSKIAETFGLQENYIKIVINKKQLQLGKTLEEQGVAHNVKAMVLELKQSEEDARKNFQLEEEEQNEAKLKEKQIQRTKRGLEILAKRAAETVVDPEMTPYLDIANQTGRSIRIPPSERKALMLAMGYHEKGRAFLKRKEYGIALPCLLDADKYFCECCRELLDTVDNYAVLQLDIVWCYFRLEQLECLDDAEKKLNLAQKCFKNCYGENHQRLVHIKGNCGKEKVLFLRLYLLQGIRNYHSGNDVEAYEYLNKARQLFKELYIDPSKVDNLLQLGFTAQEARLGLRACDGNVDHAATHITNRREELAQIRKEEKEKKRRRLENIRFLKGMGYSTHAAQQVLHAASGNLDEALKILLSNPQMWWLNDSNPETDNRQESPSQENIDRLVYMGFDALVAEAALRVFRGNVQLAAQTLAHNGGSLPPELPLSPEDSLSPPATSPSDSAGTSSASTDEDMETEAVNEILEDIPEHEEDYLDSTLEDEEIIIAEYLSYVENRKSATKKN
UniProt Q9P0S3: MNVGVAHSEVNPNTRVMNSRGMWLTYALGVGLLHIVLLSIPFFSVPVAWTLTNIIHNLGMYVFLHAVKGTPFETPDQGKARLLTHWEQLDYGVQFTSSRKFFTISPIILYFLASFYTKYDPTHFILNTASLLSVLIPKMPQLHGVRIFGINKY
UniProt O75694: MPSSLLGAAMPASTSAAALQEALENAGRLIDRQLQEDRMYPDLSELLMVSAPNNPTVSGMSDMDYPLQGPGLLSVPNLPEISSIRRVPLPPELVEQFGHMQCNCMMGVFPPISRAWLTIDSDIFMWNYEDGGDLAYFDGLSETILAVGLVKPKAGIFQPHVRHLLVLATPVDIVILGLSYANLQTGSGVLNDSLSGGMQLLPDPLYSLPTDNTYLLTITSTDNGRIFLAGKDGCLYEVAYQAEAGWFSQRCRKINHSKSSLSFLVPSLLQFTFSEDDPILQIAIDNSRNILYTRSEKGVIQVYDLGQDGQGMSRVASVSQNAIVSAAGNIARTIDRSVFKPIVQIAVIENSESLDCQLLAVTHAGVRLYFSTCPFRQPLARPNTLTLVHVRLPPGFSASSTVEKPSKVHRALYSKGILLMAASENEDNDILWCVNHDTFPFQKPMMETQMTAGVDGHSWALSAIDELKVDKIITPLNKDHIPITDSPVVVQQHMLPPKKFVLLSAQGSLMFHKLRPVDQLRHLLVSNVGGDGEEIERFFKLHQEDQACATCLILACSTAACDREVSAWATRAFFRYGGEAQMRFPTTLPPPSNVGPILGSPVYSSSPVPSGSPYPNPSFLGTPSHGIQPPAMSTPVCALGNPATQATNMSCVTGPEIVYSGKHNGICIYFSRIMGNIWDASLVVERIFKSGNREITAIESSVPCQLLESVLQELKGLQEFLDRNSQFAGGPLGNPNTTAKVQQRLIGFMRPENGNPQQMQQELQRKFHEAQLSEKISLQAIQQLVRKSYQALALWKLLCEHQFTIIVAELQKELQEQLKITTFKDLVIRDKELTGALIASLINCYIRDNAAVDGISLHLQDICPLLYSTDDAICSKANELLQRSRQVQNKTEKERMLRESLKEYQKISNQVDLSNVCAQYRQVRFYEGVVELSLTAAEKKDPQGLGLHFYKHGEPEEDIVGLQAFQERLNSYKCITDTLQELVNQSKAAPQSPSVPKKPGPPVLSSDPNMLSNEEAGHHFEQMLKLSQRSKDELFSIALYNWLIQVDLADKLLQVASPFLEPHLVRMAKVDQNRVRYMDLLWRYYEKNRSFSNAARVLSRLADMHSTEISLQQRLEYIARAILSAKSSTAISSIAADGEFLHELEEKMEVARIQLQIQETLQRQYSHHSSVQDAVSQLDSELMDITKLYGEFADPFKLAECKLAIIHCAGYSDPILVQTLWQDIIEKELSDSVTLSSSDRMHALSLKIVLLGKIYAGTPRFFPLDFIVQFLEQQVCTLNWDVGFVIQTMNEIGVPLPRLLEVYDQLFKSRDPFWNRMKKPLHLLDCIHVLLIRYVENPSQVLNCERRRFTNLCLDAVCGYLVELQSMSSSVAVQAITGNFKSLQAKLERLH

log2 fold change, inactive:
NUDT16L1 (UniProt Q9BRJ7) -0.011
ORC4 (UniProt O43929) -0.059
OXLD1 (UniProt Q5BKU9) 0.063
P4HB (UniProt P07237) -0.045
NUB1 (UniProt Q9Y5A7) 0.056
ORMDL1 (UniProt Q9P0S3) -0.073
NUP155 (UniProt O75694) -0.035
